# According to PubChem BioAssay AID2685 (National Center for Advancing Translational Sciences (NCATS), 2010):
# The other results are listed elsewhere or left out. These are further read-outs of the screen, such as a control signal, another cell line or another target. No call is given for them. The list favours compounds with an active or inconclusive main result. Words in brackets tell the shape of the fitted curve; partial curves, single points and poor fits give uncertain potencies.
# Assay: qHTS Assay for Lipid Storage Modulators in Drosophila S3 Cells;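 for cell number change: cells counted by Cell Tracker Red CMTPX staining in the red channel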
# Details: BODIPY lipid droplet fluorescence, 18-24 h; for cell number change: measured here: cell count max response, cells fed with added oleic acid
# In short: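 Drosophila S3 cells got compounds at several concentrations plus oleic acid (400 uM solution). Laser-scanning cytometry with 488 nm excitation read lipid droplets at 500-530 nm and cells at 575-640 nm. Percent activity was relative to 20 uM Triacsin C.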
# [1] = measured here: cell number channel AC50, cells fed with added oleic acid
# [2] = measured here: lipid fluorescence (Fed channel) AC50, cells fed with added oleic acid
Structure (SMILES),cell number change [%],AC50 [1],AC50 [2]
O=C(O)c1ccc(Cl)c(N2C(=O)Nc3ccccc3N2O)c1,-31.9,"4.11 µM [falling, full curve, poor fit]","2.59 µM [falling, full curve]"
O=C(NCCc1ccccc1)C(=O)NCC1OCCN1S(=O)(=O)c1ccc(F)cc1 (stereo not drawn),13,–,"4.11 µM [rising, full curve]"
NC(=O)c1c(NC(=O)COC(=O)CSc2nnc(-c3ccc(Cl)cc3)o2)sc2c1CCC2,23.1,–,"16.4 µM [rising, partial curve]"
Cc1cnc(C(=O)OC(C)C(=O)Nc2ccc(Oc3ccccc3)cc2)cn1 (stereo not drawn),1.04,–,"14.6 µM [falling, partial curve]"
COc1ccccc1N1CCN(CC(=O)NCCc2ccc(S(N)(=O)=O)cc2)CC1,16.5,–,–
C/C(=N\NC(=O)c1ccc(OC2OCCOC2Oc2ccc(C(=O)N/N=C(\C)c3ccncc3)cc2)cc1)c1ccncc1 (stereo not drawn),-0.905,"0.082 µM [falling, full curve, poor fit]",–
Cc1ccc(-c2noc(CSc3nnc(CCc4ccccc4)n3-c3ccccc3)n2)cc1,21.8,–,–
O=C(Nc1ncc(Cc2cc(Cl)ccc2Cl)s1)c1ccc([N+](=O)[O-])cc1,2.3,–,"0.58 µM [falling, single point]"
CC(C)OC(=O)c1c(NC(=O)C2CC=CCC2C(=O)O)sc2c1CCCCC2 (stereo not drawn),-15.7,–,–
CN(CC(=O)NC1CCCCCC1)S(=O)(=O)c1cnc[nH]1,1.55,–,"4.11 µM [falling, partial curve, poor fit]"
COc1ccc(N2CCN(C(=O)c3ccc4c(c3)CC(c3ccccc3)OC4=O)CC2)cc1 (stereo not drawn),-27.1,–,"29.1 µM [falling, single point]"
CC1CCCCC1NC(=O)CN1CCN(S(=O)(=O)c2ccc(Br)s2)CC1 (stereo not drawn),8,–,"6.51 µM [falling, single point]"
Cc1nc(NCc2ccccc2)sc1C(=O)Nc1ccccc1,21.2,–,"29.1 µM [falling, single point]"
COc1ccc(C(=O)COC(=O)C(C)N2C(=O)C3C4CCC(C4)C3C2=O)cc1 (stereo not drawn),-9.52,–,–
CCN(CC)S(=O)(=O)c1ccc(N2CCOCC2)c(NC(=O)c2ccc(=O)n(C)n2)c1,15.1,"2.31 µM [rising, single point]","1.46 µM [rising, partial curve]"
CCCCN1C(=O)C(=O)N(CC(=O)Nc2ccccc2C(=O)OCC)C1=O,-2.55,–,"35.5 µM [falling, partial curve, poor fit]"
CCN(Cc1ccccc1)C(=O)COc1cc(=O)n(CC)c2ccccc12,89.8,"2.91 µM [rising, full curve]","2.59 µM [rising, full curve]"
COc1ccc(NC(=O)CN(c2c(C)cccc2C)S(C)(=O)=O)cc1,-22.8,"0.0651 µM [falling, full curve, poor fit]","2.06 µM [rising, full curve]"
C/C(=N\NC(=O)C1CCCN(S(=O)(=O)c2ccccc2)C1)c1ccccn1 (stereo not drawn),16.2,"0.517 µM [rising, full curve]","0.291 µM [rising, partial curve, poor fit]"
Cc1nn(-c2ccccc2)c(C)c1C(=O)OC(C)C(=O)NC1CCCCC1C (stereo not drawn),-16.1,–,–
CN=C(Nc1ccc(C(=O)OC)cc1)SC1CC(=O)N(c2ccccc2F)C1=O (stereo not drawn),29.8,"4.61 µM [rising, full curve, poor fit]","18.4 µM [rising, single point]"
O=C1CC(C(=O)Nc2cccc(F)c2)n2c(nc3ccccc32)N1 (stereo not drawn),-1.21,–,"2.06 µM [rising, single point]"
Cc1nn(C(C)C)c(C)c1[C@@H]1C[C@H]2CN(Cc3cccc(Cl)c3)C(=O)[C@]23CCCN13,-7.48,–,"0.651 µM [falling, full curve, poor fit]"
COc1cccc(C(=O)OCCNC(=O)c2cccnc2)c1,13.3,–,–
Cc1ccc(S(=O)(=O)N2CCCC(NC(=O)N3CCN(c4ccccc4)CC3)C2)cc1 (stereo not drawn),13.5,–,"8.2 µM [rising, partial curve]"
CCCCCN(C(=O)CCC(=O)OCC(=O)N1CCCCC1)c1c(N)n(CCCC)c(=O)[nH]c1=O,23,–,"0.282 µM [rising, full curve, poor fit]"
Cc1c(C)n(Cc2ccccc2)c2ncnc(NCCCN(C)C)c12,-15.5,"0.92 µM [falling, full curve, poor fit]",–
Cc1ccc(S(=O)(=O)N2CCCC2)cc1C(=O)NC1CCCCC1,-22.1,–,"29.1 µM [falling, single point]"

Structure (SMILES),cell number change [%],AC50 [1],AC50 [2]
CC(C)c1ccc(C(=O)NCCCc2ccccc2)cc1,–,"6.51 µM [rising, single point]",–
CC(C)c1ccc(S(=O)(=O)N2CCN(C(=O)c3cccc(F)c3)CC2)cc1,–,–,"0.58 µM [falling, single point]"
CCN(C(=O)COC(=O)c1ccc(S(=O)(=O)N2CCCc3ccccc32)cc1)C1CCS(=O)(=O)C1 (stereo not drawn),32.9,"18.4 µM [rising, single point]",–
CNS(=O)(=O)c1cccc(C(=O)OCC(=O)Nc2ccccc2F)c1,17.5,"3.66 µM [rising, single point]","6.51 µM [rising, single point]"
CCc1ccc(-n2c(=O)c3ccccc3n(CC(=O)C(C)(C)C)c2=O)cc1,12.9,"0.0731 µM [rising, full curve, poor fit]","6.51 µM [rising, single point]"
COc1ccc(C2CC(=O)C(C=NCCN3CCN(C(=S)Nc4ccccc4)CC3)=C(O)C2)cc1OC (stereo not drawn),38.1,"29.1 µM [rising, single point]","29.1 µM [rising, single point]"
Cn1cccc1CC(=O)NNC(=O)Nc1ccccc1F,-8.9,–,"0.00461 µM [falling, full curve, poor fit]"
Cc1cc(C)cc(OCC(=O)OCC(=O)NC2CCCC2)c1,21.6,–,"0.92 µM [rising, full curve, poor fit]"
CC(C)C(NC(=O)c1cccs1)c1nnc(SCC(=O)Nc2nccs2)n1C (stereo not drawn),–,"0.092 µM [falling, full curve]","0.651 µM [falling, full curve]"
C/C(=N\NS(=O)(=O)c1ccc(C)cc1)c1ccc(C)s1,-28.5,–,"16.4 µM [falling, partial curve, poor fit]"
Cc1[nH][nH]c(=O)c1C(c1ccc(Cl)cc1)c1c(C)[nH][nH]c1=O,-2.36,–,"23.1 µM [rising, single point]"
COc1ccc(NC(=S)N2CCN(c3ccccc3)CC2)c(OC)c1,3.72,–,–
Cc1ccc(NC(=O)C2CC(=O)N(c3ccc4c(c3)OCCO4)C2)nc1 (stereo not drawn),19.5,–,"0.092 µM [rising, full curve, poor fit]"
CC1CCCCC1NC(=O)CN1C(=O)c2cccc(N)c2C1=O (stereo not drawn),–,"0.82 µM [rising, single point]",–
CCc1ccc(C(O)(CNCc2ccccc2)c2ccccc2)cc1 (stereo not drawn),-49.6,"29.1 µM [falling, single point]","1.84 µM [falling, partial curve]"
COc1ccc(Cl)cc1NC(=O)CN(C)CC(=O)Nc1ccccc1N1CCOCC1,12.2,–,"0.0517 µM [rising, full curve, poor fit]"
O=C(COC(=O)c1ccc(F)cc1F)Nc1cccc(S(=O)(=O)N2CCOCC2)c1,2.5,–,–
CCCC(CCC)C(=O)NNc1cc(=O)c2c(=O)n(C)c(=O)n(C)c2[nH]1,–,–,"32.6 µM [falling, single point]"
CC1CCc2[nH]c3ccc(C(=O)N(C)CC(=O)Nc4ccccc4C(F)(F)F)cc3c2C1 (stereo not drawn),41.7,"0.082 µM [rising, full curve, poor fit]","0.366 µM [rising, full curve, poor fit]"
Cc1nccn1CCCNC(=O)CC1C(=O)NCCN1Cc1ccccc1C(F)(F)F (stereo not drawn),-9.15,–,"0.00517 µM [falling, full curve, poor fit]"
Cc1ccc(/C=[N+](/C)[O-])cc1,-21,"6.51 µM [falling, single point]","6.51 µM [falling, partial curve]"
CCOC(Cn1c(-c2ccc(OC)cc2)nc2ccccc21)OCC,98,"18.4 µM [rising, single point]","14.6 µM [rising, partial curve]"
O=C(Nc1cccc(OC(F)(F)F)c1)c1ccc(Br)o1,-44.8,"14.6 µM [falling, partial curve]","20.6 µM [falling, partial curve]"
COC(=O)CNC(c1ccccc1)c1cc(Cl)ccc1NC(=O)c1cccc(Cl)c1 (stereo not drawn),37.8,"16.4 µM [rising, single point]",–
CCOC(=O)C1CCN(C(=O)CSc2nc(N)cc(=O)[nH]2)CC1,38.2,"13 µM [rising, partial curve, poor fit]",–
Cc1ccc(-c2nnc3n2CCCCC3)cc1,0.191,–,"0.164 µM [rising, full curve, poor fit]"
CCOC(=O)c1sc(C)nc1C1CCN(C(=O)OCC)CC1,88.8,"5.8 µM [rising, partial curve]","1.64 µM [rising, partial curve]"
